# Measurements from the supplement of paper PMC4683952.
# The list shows a part of the results. Rule as the data show it: active = 2 or more and inactive = the rest. This data set is noisy: repeats of one test often differ as much as different tests do.
# Tested on: Lgr5 (MarsCy1-Lgr5-EGFP, U2OS)
# Assay: cell-surface Lgr5 expression (SCi1 fluorescence, background-subtracted) relative to WT DMSO (fold of DMSO control); higher = more Lgr5 at the plasma membrane
# Settings: U2OS MarsCy1-Lgr5-EGFP stable; treatment time: overnight; library: ActiProbe-5K (TimTec); 25 µM
row,SMILES,cell-surface Lgr5 expression
1,COc1ccc(C2C3CCC=C3C(C#N)=C(N)C2(C#N)C#N)c(OC)c1 (stereo not given),inactive: 1.2
2,CCCCS(=O)(=O)/C=C/C1C2C=CC(C2)C1S(=O)(=O)CCCC (stereo not given),inactive: 1.13
3,CCSc1nc2[nH]c(=O)cc(O)c2s1,inactive: 1.17
4,COc1ccc2c(c1)N(C)/C(=C1/OC(=S)N(C)C1=O)S2,inactive: 1.07
5,CCCCCCCCN1CNC(=S)NC1,inactive: 1.21
6,COCCOCCOCCC(=O)NC1CC2CCC1(C)C2(C)C (stereo not given),inactive: 0.928
7,Cc1[nH]nc2c1C(c1ccc(Br)s1)C(C#N)=C(N)O2 (stereo not given),active: 2.54
8,CCOC(=O)CN1C(=O)S/C(=C/c2ccc(Cl)s2)C1=O,inactive: 1.17
9,CSc1nc2ccc(S(=O)(=O)N3CCc4ccccc43)cc2s1,inactive: 1
10,CSc1ccc(/C=C2\CNCC3=C2OC(N)=C(C#N)C3c2ccc(SC)cc2)cc1 (stereo not given),inactive: 1.66
11,Cc1n[nH]c2c1C(c1ccoc1)C(C#N)=C(N)O2 (stereo not given),inactive: 1.07
12,CC(C)n1ncc(C(N)=O)c1N,inactive: 1.02
13,NN1C(=O)CSC1=S,inactive: 1.39
14,Cn1cc(CNC(=O)c2c(NC(=O)CCn3cc(Cl)c([N+](=O)[O-])n3)cnn2C)cn1,inactive: 1.26
15,Nc1nc2cc3nc(N)sc3cc2s1,inactive: 1.34
16,O=C(Nc1nnn[nH]1)C1CCCCC1,inactive: 1.18
17,Cc1ccc2c(c1)/C(=C/c1ccc(Br)cc1)c1cccnc1-2,inactive: 1.03
18,Nc1nc(CSc2ccccn2)nc(Nc2ccccc2)n1,inactive: 1.44
19,N#Cc1ccc(C2Oc3ccccc3C3CC(c4ccccc4)=NN32)cc1 (stereo not given),inactive: 0.836
20,COC1OC(COC(C)=O)C(OC(C)=O)C(C#N)(C#N)C1OC(C)=O (stereo not given),inactive: 1.7
21,CCOC(=O)c1nnn(-c2nc(N3CCCC3)nc(N3CCCC3)n2)c1C,inactive: 1.17
22,Cc1sc(C2C(C#N)=C(N)SC(N)=C2C#N)cc1Br,inactive: 1
23,Nc1nonc1-c1ccc(F)cc1,inactive: 1.06
24,O=C(Cn1nc([N+](=O)[O-])nc1Br)NC1CCCCC1,inactive: 1.65
25,Cl.NNc1ccc2[nH]c(=O)[nH]c2c1,inactive: 0.961
26,COc1ccc2nc(N)sc2c1,inactive: 1.23
27,Cn1c(=O)[nH]c2c(Br)nccc21,inactive: 1.27

# 3 structures already listed, ordered by formula weight, smallest number first.
row,SMILES,cell-surface Lgr5 expression
16,O=C(Nc1nnn[nH]1)C1CCCCC1,inactive: 1.18
5,CCCCCCCCN1CNC(=S)NC1,inactive: 1.21
21,CCOC(=O)c1nnn(-c2nc(N3CCCC3)nc(N3CCCC3)n2)c1C,inactive: 1.17

# Later entries:

row,SMILES,cell-surface Lgr5 expression
1,O/N=C(Cl)/C(=N\O)c1ccccc1,inactive: 1.23
2,O=C1C(N(CO)C(=O)NCO)N(CO)C(=O)N1CO (stereo not given),inactive: 1.05
3,O=C([O-])c1cc(-c2ccc3c(c2)OCO3)nc2ccc(Br)cc12,inactive: 1.16
4,O=c1ccoc2c(Br)cc(Cl)cc12,inactive: 1.37
5,Clc1ccc(Nc2nc3nonc3nc2Nc2ccc(Cl)cc2)cc1,inactive: 1.04
6,CC(=O)Nc1nc(=O)c2ncn(C(C)=O)c2[nH]1,inactive: 1.49
7,CCOC(=O)c1sc(NC(C)=O)c(C#N)c1C,inactive: 1.42
8,O=[N+]([O-])c1ccc(NC2OC(CO)C(O)C2O)cc1 (stereo not given),inactive: 1.06
9,CC1C2CC(C(S(=O)(=O)N3CCOCC3)/C2=N/O)C1(C)C (stereo not given),inactive: 1.4
10,c1ccc2[nH]c(-c3cscn3)nc2c1,inactive: 1.06
11,CCn1cc(S(=O)(=O)NCc2c(Br)cnn2CC)c(C)n1,inactive: 1.22
12,FC(F)C(F)(F)Oc1ccc(CSc2nc3cc(Cl)cc(Cl)c3o2)cc1,inactive: 1.23
13,CCCCN(CCCC)c1nc2c([nH]1)c(=O)[nH]c(=O)n2C,inactive: 1.25
14,S=C1NC2=C(CCc3ccccc32)C(c2ccccc2Cl)N1 (stereo not given),inactive: 1.31
15,Cc1cccn2c(=O)c(/C=C3/SC(=S)N(CC4CCCO4)C3=O)c(N3CCCC3)nc12 (stereo not given),inactive: 1.16
16,CC1CCN(c2nc3c(=O)[nH]cnc3n2C2OC(CO)C(O)C2O)CC1 (stereo not given),inactive: 0.971
17,S=C(c1cccs1)N1CCCC1,inactive: 0.971
18,CC(Nc1nc(F)cc(=O)[nH]1)C(=O)O (stereo not given),inactive: 1.04
19,O=C(NC1CCCCC1NC(=O)c1ccco1)c1ccco1 (stereo not given),inactive: 1.19
20,C(/C#N)(C#N)=C/Nc1cc(Cl)c(cc1)F,inactive: 0.827
21,O=C1NC(=O)/C(=C/c2ccc3c(c2)OCO3)S1,inactive: 1.09
22,Cn1cccc1/C=N/n1c(S)nnc1-c1ccco1,inactive: 1.29
23,O=[N+]([O-])c1cc(C(F)(F)F)cc2c1Oc1ccccc1O2,inactive: 1.2
24,Oc1ccc(-c2cnc3cc(F)c(F)cc3n2)c(O)c1O,inactive: 0.688
25,COc1cc(C(c2cc3c(cc2O)OCO3)N2CCCC2)cc(OC)c1OC (stereo not given),inactive: 1.37
26,CCCCCCCCCCn1c(SCCCC)nc2c1c(=O)[nH]c(=O)n2C,inactive: 1.25
27,c1(/c(nc2ccccc2nc1C)C)=N\OCc1cc(F)ccc1,inactive: 1.18

# 5 entries from above in a different format:
row	SMILES	cell-surface Lgr5 expression
10	CSc1ccc(/C=C2\CNCC3=C2OC(N)=C(C#N)C3c2ccc(SC)cc2)cc1 (stereo not given)	inactive: 1.66
11	Cc1n[nH]c2c1C(c1ccoc1)C(C#N)=C(N)O2 (stereo not given)	inactive: 1.07
12	CC(C)n1ncc(C(N)=O)c1N	inactive: 1.02
13	NN1C(=O)CSC1=S	inactive: 1.39
14	Cn1cc(CNC(=O)c2c(NC(=O)CCn3cc(Cl)c([N+](=O)[O-])n3)cnn2C)cn1	inactive: 1.26

# Later entries

row,SMILES,cell-surface Lgr5 expression
1,Fc1ccc(Nc2nc3nonc3nc2Nc2ccc(F)cc2)cc1,inactive: 1.23
2,Clc1ccc(-c2nc3ccc4ccccc4c3c3c2CCC3)c(Cl)c1,inactive: 0.712
3,Cc1ccc(S(=O)(=O)c2no[n+]([O-])c2S(=O)(=O)c2ccc(C)cc2)cc1,inactive: 0.941
4,CN1/C(=C/C(=S)C(C)(C)C)Sc2ccccc21,inactive: 0.918
5,CCOc1ncnc2[nH]cnc12,inactive: 1.15
6,Nc1nonc1C(=O)N/N=C\c1ccco1,inactive: 1.09
7,Nc1nonc1-c1nc2ccccc2n1Cc1nnn[nH]1,inactive: 1.39
8,CCOC(=O)C1=C(C)NC(=S)NC1c1ccc(C)s1 (stereo not given),inactive: 1.22
9,Cc1nnc(SCc2nc(N)nc(N3CCOCC3)n2)s1,inactive: 1.03
10,CS(=O)(=O)c1ccc(Cl)cc1,inactive: 1.52
11,Cc1[nH]nc2c1C(c1ccco1)CC(c1ccco1)=C2 (stereo not given),inactive: 0.815
12,O=C1C2C3C=CC(C3)C2C(=O)N1c1ccc2c(c1)OCCO2 (stereo not given),inactive: 0.987
13,CS(=O)(=O)Nc1cc(Cl)ccc1Cl,inactive: 0.954
14,COc1ccc(C2CC3(OCCO3)C3(CCCCC3)O2)cc1 (stereo not given),inactive: 1.51
15,Nc1nc(-c2cccs2)cs1,inactive: 1.16
16,[N+](c1c(N\N=C2/CCCC2)cccc1)([O-])=O,inactive: 0.848
17,COC(=O)c1cc(=O)n2cccnc2n1,inactive: 1.45
18,Nc1nnnn1NCc1ccco1,inactive: 1.1
19,O=C(NC12CC3CC(CC(C3)C1)C2)c1cccs1,inactive: 1.23
20,OC(C#CC1(O)CCCCC1)c1ccco1 (stereo not given),inactive: 1.24
21,Brc1ccc(-c2noc(-c3ccc4c(c3)OCO4)n2)o1,inactive: 1.1
22,Cn1c(=O)c2c(ncn2CC(=O)N/N=C/c2ccco2)n(C)c1=O,inactive: 1.16
23,Cc1nn(C)cc1-c1nnc(N)s1,inactive: 1.08
24,Oc1nsnc1N1CCOCC1,inactive: 1.42
25,CCOC(=O)C1=C(C)NC(=O)NC1c1cc(Br)c(Br)o1 (stereo not given),inactive: 1.16
26,O=c1c(-c2ccccc2)c2sc3ccccc3nc-2c2ccccc12,inactive: 1.33
27,Cc1n(CC(O)COc2ccccc2)c2ccccc2[n+]1C (stereo not given),inactive: 1.11

row,SMILES,cell-surface Lgr5 expression
1,O=[N+]([O-])c1ccc(O)c(/C=N\c2nnc3n(/N=C/c4cc([N+](=O)[O-])ccc4O)cnn23)c1,inactive: 1.19
2,N#CC1=C(N)C(C#N)(C#N)C(c2ccco2)C2=C1CCCC2 (stereo not given),inactive: 0.85
3,O=c1[nH]c(=O)c2c(Cl)cc(Cl)cc2[nH]1,inactive: 0.937
4,Cc1ccc(/C=C(/C#N)C(N)=S)s1,inactive: 1.55
5,C1(/c2c3c(cccc3C1)ccc2)=C(\C#N)C#N,inactive: 1.27
6,Nc1nc2nc(-c3ccco3)cc(C(F)(F)F)n2n1,inactive: 1.75
7,O=S(=O)(c1cc(Cl)ccc1Cl)N1CCN(C23CC4CC(CC(C4)C2)C3)CC1,inactive: 0.752
8,Cc1ccc2nsnc2c1S(=O)(=O)NCc1ccc(S(N)(=O)=O)cc1,inactive: 1.08
9,C(=C(\Cl)Cl)(/COC(=O)CCCC(NC1CCCCC1)=O)Cl,inactive: 0.995
10,Clc1cc(Cl)cc(N/N=C/c2ccccn2)c1,inactive: 1.41
11,CS(=O)(=O)N1CCc2cc(S(=O)(=O)NC(c3ccccc3)c3ccccc3)ccc21,inactive: 1.04
12,CS(=O)(=O)c1ccc(Br)cc1,active: 2.97
13,Cn1ccnc1CN1CCN(Cc2nccn2C)CC1,inactive: 1.07
14,C/C=C1\CN2CCC34C(=C(/C=N/Nc5ccccc5)C1CC23)Nc1ccccc14 (stereo not given),inactive: 0.96
15,Oc1ccc(Br)cc1/C=N\CC/N=C/c1cc(Br)ccc1O,inactive: 0.781
16,O=C(Cc1cccs1)N/N=C/C=C/c1ccco1,inactive: 1.02
17,COCc1c(C(=O)O)nnn1-c1nonc1N,inactive: 1.2
18,CN1CC2c3ccccc3OC(c3ccc4c(c3)OCO4)C2([N+](=O)[O-])O1 (stereo not given),inactive: 1.26
19,N#Cc1sc2nc(-c3cccs3)ccc2c1N,inactive: 1
20,CCOc1cc2c(cc1OCC)C(C1CC=CCC1)NCC2 (stereo not given),inactive: 1.11
21,O=C(C1=C(O)C(=O)N(CCCN2CCOCC2)C1c1ccco1)c1ccco1 (stereo not given),inactive: 1.09
22,N#CC1=C(N)C(C#N)(C#N)C(c2cc(Br)cs2)C2CCCC=C12 (stereo not given),inactive: 1.09
23,Clc1cccc(C2Nc3cccc4cccc(c34)N2)c1,inactive: 0.908
24,O=C1N(CN2CCC3(CC2)OCCO3)c2ccccc2C12OCCCCO2,inactive: 1.25
